Here are results for 3 molecules from article doi:10.1101/2022.01.11.475808.

Amino acid sequences for entries named in this document (tags omitted). A change or cut given only in a name is not applied to a line headed by its entry.
UniProt Q8N163: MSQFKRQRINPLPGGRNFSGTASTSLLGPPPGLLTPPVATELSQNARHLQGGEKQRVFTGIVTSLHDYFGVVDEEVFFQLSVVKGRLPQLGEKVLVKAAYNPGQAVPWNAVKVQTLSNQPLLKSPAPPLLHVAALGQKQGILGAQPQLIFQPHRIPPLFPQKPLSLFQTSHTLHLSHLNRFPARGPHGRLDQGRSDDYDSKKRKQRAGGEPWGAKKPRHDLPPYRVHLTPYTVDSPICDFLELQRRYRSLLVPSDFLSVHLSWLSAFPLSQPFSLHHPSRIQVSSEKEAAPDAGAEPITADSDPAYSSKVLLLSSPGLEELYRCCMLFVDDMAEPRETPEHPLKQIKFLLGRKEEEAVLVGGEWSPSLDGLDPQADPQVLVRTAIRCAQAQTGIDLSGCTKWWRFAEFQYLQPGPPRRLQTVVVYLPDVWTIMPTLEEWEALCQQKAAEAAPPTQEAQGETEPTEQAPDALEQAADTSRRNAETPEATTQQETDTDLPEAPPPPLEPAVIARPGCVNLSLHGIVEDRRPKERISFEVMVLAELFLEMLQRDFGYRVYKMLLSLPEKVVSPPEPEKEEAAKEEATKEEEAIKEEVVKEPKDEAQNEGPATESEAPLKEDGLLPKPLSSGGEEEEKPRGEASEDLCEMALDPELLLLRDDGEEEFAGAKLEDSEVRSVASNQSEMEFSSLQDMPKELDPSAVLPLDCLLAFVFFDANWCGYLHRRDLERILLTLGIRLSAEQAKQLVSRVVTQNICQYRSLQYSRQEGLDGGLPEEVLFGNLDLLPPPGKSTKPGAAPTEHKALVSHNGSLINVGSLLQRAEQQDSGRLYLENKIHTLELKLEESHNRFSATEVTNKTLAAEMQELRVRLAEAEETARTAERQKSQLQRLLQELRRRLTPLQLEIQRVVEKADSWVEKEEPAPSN

No constants are given. Whether binding was seen depends on the method and setting. For some of these results: In cells and extracts the contact can be indirect. Some entries that bind do so weakly or less than the wild type. For some of these results: Where a sequence is shown, tags or fusion partners need not be part of it.

Experiment [1] deals with T1, GST-SIAH2 (human) (UniProt O43255).
T1 sequence: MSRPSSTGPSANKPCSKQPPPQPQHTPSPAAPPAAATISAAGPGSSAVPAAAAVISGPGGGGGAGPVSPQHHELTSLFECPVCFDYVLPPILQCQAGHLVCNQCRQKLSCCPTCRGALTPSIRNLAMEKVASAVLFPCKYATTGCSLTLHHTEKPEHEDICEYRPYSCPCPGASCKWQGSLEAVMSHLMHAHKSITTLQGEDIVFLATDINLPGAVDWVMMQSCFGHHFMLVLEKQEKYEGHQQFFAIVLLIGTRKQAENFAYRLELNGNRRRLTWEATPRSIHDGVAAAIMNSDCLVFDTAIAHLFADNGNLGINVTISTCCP
The experiment can be described thus: pull-down.

Experiment [2] deals with endogenous DBC1 (human (endogenous in MDA-MB-231)) (UniProt Q8N163). The experiment can be described thus: co-IP.
Experiment [3] deals with His-DBC1 (human) (UniProt Q8N163). The experiment can be described thus: pull-down.
The target of experiment [4] is Myc-DBC1 (human) (UniProt Q8N163). Nature of the experiment: co-IP.

Regarding “C-terminal half of His-DBC1 (462-923) (from UniProt Q8N163 462-923) (domain or fragment)”, the binding result in experiment [1] is “no binding”.

B1: endogenous OTUD5 (enzyme, UniProt Q96G74 1-571)
chain: MTILPKKKPPPPDADPANEPPPPGPMPPAPRRGGGVGVGGGGTGVGGGDRDRDSGVVGARPRASPPPQGPLPGPPGALHRWALAVPPGAVAGPRPQQASPPPCGGPGGPGGGPGDALGAAAAGVGAAGVVVGVGGAVGVGGCCSGPGHSKRRRQAPGVGAVGGGSPEREEVGAGYNSEDEYEAAAARIEAMDPATVEQQEHWFEKALRDKKGFIIKQMKEDGACLFRAVADQVYGDQDMHEVVRKHCMDYLMKNADYFSNYVTEDFTTYINRKRKNNCHGNHIEMQAMAEMYNRPVEVYQYSTGTSAVEPINTFHGIHQNEDEPIRVSYHRNIHYNSVVNPNKATIGVGLGLPSFKPGFAEQSLMKNAIKTSEESWIEQQMLEDKKRATDWEATNEAIEEQVARESYLQWLRDQEKQARQVRGPSQPRKASATCSSATAAASSGLEEWTSRSPRQRSSASSPEHPELHAELGMKPPSPGTVLALAKPPSPCAPGTSSQFSAGADRATSPLVSLYPALECRALIQQMSPSAFGLNDWDDDEILASVLAVSQQEYLDSMKKNKVHRDPPPDKS
B1: the binding entry in experiment [2] and in experiment [3] was “binds” each time.

B2: Flag-OTUD5 (enzyme, UniProt Q96G74 1-571)
chain: B1 chain
As to B2, in experiment [4], the binding result is “binds”.
